Data as given in PubChem BioAssay AID248 (DTP/NCI, 2004).
The list is a part of this screen's results and no random one: it gathers tests that were run many times, whatever their T/C, doses with no T/C, and many T/C values between a quarter and a half above the control. Further doses and runs are listed elsewhere. T/C: endpoint of the treated group in % of that of the vehicle group. Some doses have a count of surviving animals in place of a T/C: the source files T/C as zero there, which appears to mark a toxic dose or a test without result, not a measured value. Some survivor counts are full or nearly so, which does not show that the dose was tolerated: survival well below the control is almost never listed, so the zero probably covers shortened survival too. Counts of survivors are from the toxicity check (mostly the fifth day) where no day follows; animals may have died later. Schedules are NCI's codes, taken here to give the interval after Q, in days (D) or hours (H), and the number of doses after X. Some entries hold several experiments; the values are given in rising order. Marks such as (2×) count equal records among those shown. For survival time, this PubChem deposit counts one and a half times the control or more as active, and values a quarter to a half above the control carry no call in these data; other NCI protocols may use other cut-offs. Some T/C values are followed by the survivors on the day toxicity was checked, most often the fifth; without a count, all were alive then. Some schedule codes hold Z or #, which are not explained here.

Tested on: L1210 leukemia ip in BDF1 mice, survival T/C
Assay: NCI In Vivo Anticancer Drug Screen. Data for tumor model L1210 Leukemia (intraperitoneal) in B6D2F1 (BDF1) mice
Details: T/C endpoint: median survival time, higher T/C = longer survival

Structure (SMILES): COc1cccc2c1C(=O)c1c(O)c3c(c(O)c1C2=O)C[C@@](O)(C(=O)CO)C[C@@H]3OC1CC(N)C(O)C(C)O1 (stereo not given in full)
- T/C (dose: 8.0 mg/kg/injection, schedule: Q01DX001 (ip), vehicle: saline, evaluated on day 30): 226 % of control
- T/C (dose: 8.0 mg/kg/injection, schedule: Q01DX001 (ip), vehicle: saline, evaluated on day 60): 149, 151, 155, 160 [9 of 10 alive], 168 % of control
- T/C (dose: 8.0 mg/kg/injection, schedule: Q01DX001 (ip), vehicle: water, evaluated on day 5): 127 and 130 % of control
- T/C (dose: 8.0 mg/kg/injection, schedule: Q01DX001 (ip), vehicle: water, evaluated on day 21): 130 % of control
- T/C (dose: 8.0 mg/kg/injection, schedule: Q01DX001 (ip), vehicle: water, evaluated on day 30): 127 % of control
- T/C (dose: 8.0 mg/kg/injection, schedule: Q## X001 (ip), vehicle: saline): 139 % of control
- survivor count (dose: 8.3 mg/kg/injection, schedule: Q04DX003 (ip), vehicle: water): 10 of 10
- T/C (dose: 8.4 mg/kg/injection, schedule: Q01DX001 (ip), vehicle: water, evaluated on day 7): 109 and 119 % of control
- T/C (dose: 8.4 mg/kg/injection, schedule: Q01DX001 (ip), vehicle: water, evaluated on day 24): 111 and 122 % of control
- T/C (dose: 8.4 mg/kg/injection, schedule: Q01DX001 (ip), vehicle: water, evaluated on day 30): 110 % of control
- T/C (dose: 8.4 mg/kg/injection, schedule: Q01DX001 (ip), vehicle: water, evaluated on day 33): 150 % of control
- T/C (dose: 8.4 mg/kg/injection, schedule: Q01DX001 (ip), vehicle: water, evaluated on day 60): 118 and 122 % of control
- T/C (dose: 8.4 mg/kg/injection, schedule: Q03HX008 (ip), vehicle: water, evaluated on day 7): 78, 83, 94 % of control
- T/C (dose: 8.4 mg/kg/injection, schedule: Q03HX008 (ip), vehicle: water, evaluated on day 60): 94 % of control
- survivor count (dose: 8.4 mg/kg/injection, schedule: Q03HX008 (ip), vehicle: water): 7 of 8 and 8 of 8
- T/C (dose: 8.4 mg/kg/injection, schedule: Q04DX003 (ip), vehicle: water, evaluated on day 5): 89 and 94 % of control
- T/C (dose: 8.4 mg/kg/injection, schedule: Q04DX003 (ip), vehicle: water, evaluated on day 7): 106, 115, 122, 134 % of control
- T/C (dose: 8.4 mg/kg/injection, schedule: Q04DX003 (ip), vehicle: water, evaluated on day 24): 111 % of control
- T/C (dose: 8.4 mg/kg/injection, schedule: Q04DX003 (ip), vehicle: water, evaluated on day 31): 122 % of control
- T/C (dose: 8.4 mg/kg/injection, schedule: Q04DX003 (ip), vehicle: water, evaluated on day 40): 134 % of control
- T/C (dose: 8.4 mg/kg/injection, schedule: Q04DX003 (ip), vehicle: water, evaluated on day 60): 90 (2×), 94, 115, 118 % of control
- T/C (dose: 8.4 mg/kg/injection, schedule: Q12DX002 (ip), vehicle: water, evaluated on day 7): 135 % of control
- T/C (dose: 8.4 mg/kg/injection, schedule: Q12DX002 (ip), vehicle: water, evaluated on day 24): 138 % of control
- T/C (dose: 10.0 mg/kg/injection, schedule: Q01DX001 (ip), vehicle: water, evaluated on day 5): 138, 142, 153 % of control
- T/C (dose: 10.0 mg/kg/injection, schedule: Q01DX001 (ip), vehicle: water, evaluated on day 30): 127 and 133 % of control
- T/C (dose: 10.0 mg/kg/injection, schedule: Q01DX001 (ip), vehicle: water, evaluated on day 46): 144 % of control
- T/C (dose: 10.0 mg/kg/injection, schedule: Q01DX001 (ip), vehicle: water, evaluated on day 61): 121 % of control
- T/C (dose: 10.0 mg/kg/injection, schedule: Q08DX002 (ip), vehicle: water): 147 % of control
- T/C (dose: 14.0 mg/kg/injection, schedule: Q01DX001 (ip), vehicle: water, evaluated on day 7): 120 and 132 % of control
- T/C (dose: 14.0 mg/kg/injection, schedule: Q01DX001 (ip), vehicle: water, evaluated on day 24): 122 and 133 % of control
- T/C (dose: 14.0 mg/kg/injection, schedule: Q01DX001 (ip), vehicle: water, evaluated on day 33): 94 % of control
- T/C (dose: 14.0 mg/kg/injection, schedule: Q01DX001 (ip), vehicle: water, evaluated on day 60): 104 % of control
- survivor count (dose: 14.0 mg/kg/injection, schedule: Q01DX001 (ip), vehicle: water): 7 of 8 and 8 of 8
- T/C (dose: 14.0 mg/kg/injection, schedule: Q04DX003 (ip), vehicle: water, evaluated on day 7): 116 and 139 % of control
- T/C (dose: 14.0 mg/kg/injection, schedule: Q04DX003 (ip), vehicle: water, evaluated on day 24): 144 % of control
- T/C (dose: 14.0 mg/kg/injection, schedule: Q04DX003 (ip), vehicle: water, evaluated on day 60): 113 and 116 % of control
- survivor count (dose: 14.0 mg/kg/injection, schedule: Q04DX003 (ip), vehicle: water): 7 of 8
- T/C (dose: 14.0 mg/kg/injection, schedule: Q12DX002 (ip), vehicle: water, evaluated on day 7): 132 % of control
- T/C (dose: 14.0 mg/kg/injection, schedule: Q12DX002 (ip), vehicle: water, evaluated on day 24): 133 % of control
- T/C (dose: 16.0 mg/kg/injection, schedule: Q01DX001 (ip), vehicle: saline, evaluated on day 5): 97, 102, 143, 146, 168, 178, 199, 622 % of control
- T/C (dose: 16.0 mg/kg/injection, schedule: Q01DX001 (ip), vehicle: saline, evaluated on day 30): 168 % of control [9 of 10 alive]
- T/C (dose: 16.0 mg/kg/injection, schedule: Q01DX001 (ip), vehicle: saline, evaluated on day 60): 102, 146 [8 of 10 alive], 178 [9 of 10 alive], 200 [9 of 10 alive], 258 % of control [9 of 10 alive]
- T/C (dose: 16.0 mg/kg/injection, schedule: Q01DX001 (ip), vehicle: water, evaluated on day 5): 63 and 95 % of control
- T/C (dose: 16.0 mg/kg/injection, schedule: Q01DX001 (ip), vehicle: water, evaluated on day 21): 95 % of control
- survivor count (dose: 16.0 mg/kg/injection, schedule: Q01DX001 (ip), vehicle: water): 7 of 8
- T/C (dose: 16.0 mg/kg/injection, schedule: Q## X001 (ip), vehicle: saline): 143 % of control
- T/C (dose: 20.0 mg/kg/injection, schedule: Q01DX001 (ip), vehicle: water, evaluated on day 5): 67, 71, 84 % of control
- T/C (dose: 20.0 mg/kg/injection, schedule: Q01DX001 (ip), vehicle: water, evaluated on day 30): 90 % of control
- survivor count (dose: 20.0 mg/kg/injection, schedule: Q01DX001 (ip), vehicle: water): 7 of 8 (2×), 9 of 10, 8 of 8
- survivor count (dose: 20.0 mg/kg/injection, schedule: Q08DX002 (ip), vehicle: water): 10 of 10 and 8 of 8
- T/C (dose: 23.0 mg/kg/injection, schedule: Q01DX001 (ip), vehicle: water, evaluated on day 7): 84 and 119 % of control
- T/C (dose: 23.0 mg/kg/injection, schedule: Q01DX001 (ip), vehicle: water, evaluated on day 24): 122 % of control
- T/C (dose: 23.0 mg/kg/injection, schedule: Q01DX001 (ip), vehicle: water, evaluated on day 60): 95 % of control
- survivor count (dose: 23.0 mg/kg/injection, schedule: Q01DX001 (ip), vehicle: water): 5 of 8, 6 of 8 (2×), 8 of 8
- survivor count (dose: 32.0 mg/kg/injection, schedule: Q01DX001 (ip), vehicle: water): 6 of 6
